# Source: article PMC7950113
# By UniProt entry, the sequences of proteins in these tests, tags left out. Where a name states a change or a piece, a line headed by the entry shows the natural chain unless it says otherwise. Chains listed by the source or under a name are the forms on record and can include a tag or linker. Residues count along the entry.
# FLAG-tagged thyroglobulin, WT (P01266, residues 20-2768): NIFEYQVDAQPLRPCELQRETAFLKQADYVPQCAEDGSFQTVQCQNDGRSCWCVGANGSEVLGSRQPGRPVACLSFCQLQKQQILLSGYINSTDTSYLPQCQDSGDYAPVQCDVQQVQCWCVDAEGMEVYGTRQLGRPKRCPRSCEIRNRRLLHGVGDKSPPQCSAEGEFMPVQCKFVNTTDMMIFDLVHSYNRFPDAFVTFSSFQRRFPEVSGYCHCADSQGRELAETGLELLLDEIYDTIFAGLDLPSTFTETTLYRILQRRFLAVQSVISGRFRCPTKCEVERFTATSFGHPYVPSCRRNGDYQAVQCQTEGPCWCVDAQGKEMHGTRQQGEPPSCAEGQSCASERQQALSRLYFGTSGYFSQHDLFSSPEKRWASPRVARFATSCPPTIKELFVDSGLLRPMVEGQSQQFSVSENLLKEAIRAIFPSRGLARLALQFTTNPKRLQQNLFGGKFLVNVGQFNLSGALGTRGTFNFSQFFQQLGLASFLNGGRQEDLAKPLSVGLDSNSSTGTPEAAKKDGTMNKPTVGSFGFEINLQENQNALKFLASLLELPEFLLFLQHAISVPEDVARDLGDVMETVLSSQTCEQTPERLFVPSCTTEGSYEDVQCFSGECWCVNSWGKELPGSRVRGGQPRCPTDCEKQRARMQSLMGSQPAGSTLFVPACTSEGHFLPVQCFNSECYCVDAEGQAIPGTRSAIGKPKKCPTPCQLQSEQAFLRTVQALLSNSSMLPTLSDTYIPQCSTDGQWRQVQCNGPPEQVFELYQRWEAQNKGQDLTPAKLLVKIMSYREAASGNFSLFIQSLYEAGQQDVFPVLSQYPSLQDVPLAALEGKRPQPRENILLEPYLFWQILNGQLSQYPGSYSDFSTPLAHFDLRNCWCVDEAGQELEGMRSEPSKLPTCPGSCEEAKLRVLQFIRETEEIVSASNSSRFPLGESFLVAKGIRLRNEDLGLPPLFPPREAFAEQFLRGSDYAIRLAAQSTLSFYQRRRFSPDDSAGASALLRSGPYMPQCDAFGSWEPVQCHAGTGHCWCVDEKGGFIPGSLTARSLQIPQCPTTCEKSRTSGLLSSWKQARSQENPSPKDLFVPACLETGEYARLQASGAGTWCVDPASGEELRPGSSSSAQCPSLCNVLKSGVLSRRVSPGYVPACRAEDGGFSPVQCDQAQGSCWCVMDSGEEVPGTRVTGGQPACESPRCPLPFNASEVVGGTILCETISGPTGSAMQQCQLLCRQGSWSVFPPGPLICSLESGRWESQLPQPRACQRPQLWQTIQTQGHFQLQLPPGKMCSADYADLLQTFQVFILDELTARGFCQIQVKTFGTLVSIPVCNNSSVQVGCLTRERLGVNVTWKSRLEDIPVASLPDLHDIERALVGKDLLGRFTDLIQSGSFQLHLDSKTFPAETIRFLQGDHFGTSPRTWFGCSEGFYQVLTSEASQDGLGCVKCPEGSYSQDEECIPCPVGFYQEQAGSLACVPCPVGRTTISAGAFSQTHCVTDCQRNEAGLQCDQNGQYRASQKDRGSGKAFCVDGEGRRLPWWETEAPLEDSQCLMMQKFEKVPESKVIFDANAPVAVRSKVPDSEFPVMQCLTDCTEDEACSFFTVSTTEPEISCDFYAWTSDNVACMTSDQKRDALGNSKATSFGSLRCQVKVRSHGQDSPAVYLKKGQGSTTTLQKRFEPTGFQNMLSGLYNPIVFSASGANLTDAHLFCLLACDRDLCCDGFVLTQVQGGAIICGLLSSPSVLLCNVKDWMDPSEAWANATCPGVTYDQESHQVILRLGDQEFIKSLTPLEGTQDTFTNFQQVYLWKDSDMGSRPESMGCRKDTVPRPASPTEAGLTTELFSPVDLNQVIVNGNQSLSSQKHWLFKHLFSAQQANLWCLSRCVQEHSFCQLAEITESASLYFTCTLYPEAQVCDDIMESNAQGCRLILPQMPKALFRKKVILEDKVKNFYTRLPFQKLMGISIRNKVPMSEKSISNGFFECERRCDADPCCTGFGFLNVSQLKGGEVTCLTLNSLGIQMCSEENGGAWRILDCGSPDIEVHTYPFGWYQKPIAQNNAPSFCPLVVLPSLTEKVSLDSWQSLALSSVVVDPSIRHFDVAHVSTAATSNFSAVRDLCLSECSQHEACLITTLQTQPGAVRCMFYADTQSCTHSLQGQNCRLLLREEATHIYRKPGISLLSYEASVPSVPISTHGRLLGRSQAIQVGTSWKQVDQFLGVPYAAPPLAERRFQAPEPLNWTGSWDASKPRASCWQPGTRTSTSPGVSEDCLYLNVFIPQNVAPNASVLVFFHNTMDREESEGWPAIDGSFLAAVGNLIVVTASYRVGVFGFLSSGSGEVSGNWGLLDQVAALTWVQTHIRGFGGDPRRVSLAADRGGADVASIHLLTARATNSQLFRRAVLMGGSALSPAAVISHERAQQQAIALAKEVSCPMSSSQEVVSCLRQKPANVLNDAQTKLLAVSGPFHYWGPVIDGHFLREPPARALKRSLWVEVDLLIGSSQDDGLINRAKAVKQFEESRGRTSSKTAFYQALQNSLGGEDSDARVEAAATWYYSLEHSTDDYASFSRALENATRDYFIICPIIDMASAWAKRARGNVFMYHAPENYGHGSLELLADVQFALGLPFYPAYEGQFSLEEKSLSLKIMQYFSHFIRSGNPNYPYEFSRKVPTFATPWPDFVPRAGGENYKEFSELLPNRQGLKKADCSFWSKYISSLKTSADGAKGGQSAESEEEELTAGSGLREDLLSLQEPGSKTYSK
# FLAG-tagged thyroglobulin C1264R (P01266, form named): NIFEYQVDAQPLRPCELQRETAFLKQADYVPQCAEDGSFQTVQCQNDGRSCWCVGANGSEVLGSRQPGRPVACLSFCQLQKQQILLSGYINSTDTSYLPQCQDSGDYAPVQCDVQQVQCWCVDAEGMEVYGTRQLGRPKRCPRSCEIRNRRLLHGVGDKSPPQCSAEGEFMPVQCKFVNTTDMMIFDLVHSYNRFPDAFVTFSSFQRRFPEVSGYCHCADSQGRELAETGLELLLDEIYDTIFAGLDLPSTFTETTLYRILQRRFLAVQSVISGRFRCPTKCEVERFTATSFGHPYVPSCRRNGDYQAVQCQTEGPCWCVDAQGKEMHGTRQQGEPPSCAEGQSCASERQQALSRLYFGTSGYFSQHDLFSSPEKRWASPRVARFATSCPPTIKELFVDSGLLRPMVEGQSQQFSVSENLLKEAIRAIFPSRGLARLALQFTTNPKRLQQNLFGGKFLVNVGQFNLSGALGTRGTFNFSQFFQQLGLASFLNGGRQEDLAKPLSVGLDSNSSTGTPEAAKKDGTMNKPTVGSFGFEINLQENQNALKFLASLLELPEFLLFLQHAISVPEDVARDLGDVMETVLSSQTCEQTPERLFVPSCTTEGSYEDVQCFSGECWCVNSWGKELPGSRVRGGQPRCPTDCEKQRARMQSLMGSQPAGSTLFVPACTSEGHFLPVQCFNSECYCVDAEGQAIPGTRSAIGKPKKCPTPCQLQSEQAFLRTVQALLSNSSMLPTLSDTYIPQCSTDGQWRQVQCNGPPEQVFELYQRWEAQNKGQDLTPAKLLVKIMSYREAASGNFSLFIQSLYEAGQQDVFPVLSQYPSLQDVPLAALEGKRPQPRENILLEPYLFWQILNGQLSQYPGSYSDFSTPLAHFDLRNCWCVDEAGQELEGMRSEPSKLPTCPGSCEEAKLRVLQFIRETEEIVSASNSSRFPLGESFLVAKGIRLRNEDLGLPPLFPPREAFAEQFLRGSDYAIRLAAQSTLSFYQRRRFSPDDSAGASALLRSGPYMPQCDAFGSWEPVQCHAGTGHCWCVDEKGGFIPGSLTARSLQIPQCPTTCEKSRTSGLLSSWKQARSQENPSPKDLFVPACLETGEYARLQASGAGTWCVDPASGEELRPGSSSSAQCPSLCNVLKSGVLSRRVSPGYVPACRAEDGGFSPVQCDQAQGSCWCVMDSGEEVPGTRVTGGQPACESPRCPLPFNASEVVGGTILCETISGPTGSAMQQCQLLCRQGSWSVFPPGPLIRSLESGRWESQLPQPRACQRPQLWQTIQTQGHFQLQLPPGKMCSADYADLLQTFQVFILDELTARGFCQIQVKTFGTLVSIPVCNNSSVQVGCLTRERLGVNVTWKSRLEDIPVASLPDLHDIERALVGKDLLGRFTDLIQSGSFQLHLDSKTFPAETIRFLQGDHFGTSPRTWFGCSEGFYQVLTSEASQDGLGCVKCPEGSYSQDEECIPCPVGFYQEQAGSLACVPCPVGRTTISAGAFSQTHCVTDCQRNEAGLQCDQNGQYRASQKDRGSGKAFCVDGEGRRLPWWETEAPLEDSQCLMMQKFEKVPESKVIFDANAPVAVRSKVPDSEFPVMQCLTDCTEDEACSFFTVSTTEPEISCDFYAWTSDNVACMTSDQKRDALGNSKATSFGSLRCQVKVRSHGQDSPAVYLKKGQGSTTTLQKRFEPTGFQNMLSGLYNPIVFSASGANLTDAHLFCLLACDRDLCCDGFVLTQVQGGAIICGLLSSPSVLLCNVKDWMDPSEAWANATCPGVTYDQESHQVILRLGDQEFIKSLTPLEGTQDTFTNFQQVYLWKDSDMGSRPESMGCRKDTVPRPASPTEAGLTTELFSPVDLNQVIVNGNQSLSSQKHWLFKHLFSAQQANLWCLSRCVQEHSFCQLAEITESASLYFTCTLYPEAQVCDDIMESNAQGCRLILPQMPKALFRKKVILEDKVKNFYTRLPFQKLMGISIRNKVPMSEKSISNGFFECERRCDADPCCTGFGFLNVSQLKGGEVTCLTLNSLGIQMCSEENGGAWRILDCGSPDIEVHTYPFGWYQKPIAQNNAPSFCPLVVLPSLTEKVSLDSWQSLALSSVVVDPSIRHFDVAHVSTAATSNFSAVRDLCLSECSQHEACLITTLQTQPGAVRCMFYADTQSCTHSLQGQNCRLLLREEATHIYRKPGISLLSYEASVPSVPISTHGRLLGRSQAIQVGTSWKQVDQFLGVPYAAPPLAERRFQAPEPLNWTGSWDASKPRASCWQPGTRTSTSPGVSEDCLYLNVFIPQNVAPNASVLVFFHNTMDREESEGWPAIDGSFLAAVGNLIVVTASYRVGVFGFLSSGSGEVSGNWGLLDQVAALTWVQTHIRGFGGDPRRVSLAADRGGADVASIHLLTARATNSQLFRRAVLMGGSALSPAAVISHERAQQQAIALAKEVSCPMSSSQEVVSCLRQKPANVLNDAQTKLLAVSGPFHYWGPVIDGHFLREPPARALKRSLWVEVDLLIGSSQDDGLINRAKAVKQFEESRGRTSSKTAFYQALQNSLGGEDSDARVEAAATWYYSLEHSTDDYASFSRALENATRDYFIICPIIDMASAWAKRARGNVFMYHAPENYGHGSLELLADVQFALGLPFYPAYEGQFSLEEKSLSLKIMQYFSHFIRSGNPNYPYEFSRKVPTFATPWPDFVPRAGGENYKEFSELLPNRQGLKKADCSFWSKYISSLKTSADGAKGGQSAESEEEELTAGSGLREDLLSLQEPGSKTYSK
# Results are given in words; binding and its absence hold for the method and conditions named. In cells and extracts the contact can be indirect. Here binding means that the protein was enriched with, or labelled near, the bait; the list need not be complete.
# B1: ER-localized peroxidase PXDN (protein, UniProt Q92626 27-1479)
# chain: VVAQKPGAGCPSRCLCFRTTVRCMHLLLEAVPAVAPQTSILDLRFNRIREIQPGAFRRLRNLNTLLLNNNQIKRIPSGAFEDLENLKYLYLYKNEIQSIDRQAFKGLASLEQLYLHFNQIETLDPDSFQHLPKLERLFLHNNRITHLVPGTFNHLESMKRLRLDSNTLHCDCEILWLADLLKTYAESGNAQAAAICEYPRRIQGRSVATITPEELNCERPRITSEPQDADVTSGNTVYFTCRAEGNPKPEIIWLRNNNELSMKTDSRLNLLDDGTLMIQNTQETDQGIYQCMAKNVAGEVKTQEVTLRYFGSPARPTFVIQPQNTEVLVGESVTLECSATGHPPPRISWTRGDRTPLPVDPRVNITPSGGLYIQNVVQGDSGEYACSATNNIDSVHATAFIIVQALPQFTVTPQDRVVIEGQTVDFQCEAKGNPPPVIAWTKGGSQLSVDRRHLVLSSGTLRISGVALHDQGQYECQAVNIIGSQKVVAHLTVQPRVTPVFASIPSDTTVEVGANVQLPCSSQGEPEPAITWNKDGVQVTESGKFHISPEGFLTINDVGPADAGRYECVARNTIGSASVSMVLSVNVPDVSRNGDPFVATSIVEAIATVDRAINSTRTHLFDSRPRSPNDLLALFRYPRDPYTVEQARAGEIFERTLQLIQEHVQHGLMVDLNGTSYHYNDLVSPQYLNLIANLSGCTAHRRVNNCSDMCFHQKYRTHDGTCNNLQHPMWGASLTAFERLLKSVYENGFNTPRGINPHRLYNGHALPMPRLVSTTLIGTETVTPDEQFTHMLMQWGQFLDHDLDSTVVALSQARFSDGQHCSNVCSNDPPCFSVMIPPNDSRARSGARCMFFVRSSPVCGSGMTSLLMNSVYPREQINQLTSYIDASNVYGSTEHEARSIRDLASHRGLLRQGIVQRSGKPLLPFATGPPTECMRDENESPIPCFLAGDHRANEQLGLTSMHTLWFREHNRIATELLKLNPHWDGDTIYYETRKIVGAEIQHITYQHWLPKILGEVGMRTLGEYHGYDPGINAGIFNAFATAAFRFGHTLVNPLLYRLDENFQPIAQDHLPLHKAFFSPFRIVNEGGIDPLLRGLFGVAGKMRVPSQLLNTELTERLFSMAHTVALDLAAINIQRGRDHGIPPYHDYRVYCNLSAAHTFEDLKNEIKNPEIREKLKRLYGSTLNIDLFPALVVEDLVPGSRLGPTLMCLLSTQFKRLRDGDRLWYENPGVFSPAQLTQIKQTSLARILCDNADNITRVQSDVFRVAEFPHGYGSCDEIPRVDLRVWQDCCEDCRTRGQFNAFSYHFRGRRSLEFSYQEDKPTKKTRPRKIPSVGRQGEHLSNSTSAFSTRSDASGTNDFREFVLEMQKTITDLRTQIKKLESRLSTTECVDAGGESHANNTKWKKDACTICECKDGQVTCFVEACPPATCAVPVNIPGACCPVCLQKRAEEKP
# B2: glycan-modifying enzyme B3GALT6 (protein, UniProt Q96L58 1-329)
# chain: MKLLRRAWRRRAALGLGTLALCGAALLYLARCAAEPGDPRAMSGRSPPPPAPARAAAFLAVLVASAPRAAERRSVIRSTWLARRGAPGDVWARFAVGTAGLGAEERRALEREQARHGDLLLLPALRDAYENLTAKVLAMLAWLDEHVAFEFVLKADDDSFARLDALLAELRAREPARRRRLYWGFFSGRGRVKPGGRWREAAWQLCDYYLPYALGGGYVLSADLVHYLRLSRDYLRAWHSEDVSLGAWLAPVDVQREHDPRFDTEYRSRGCSNQYLVTHKQSLEDMLEKHATLAREGRLCKREVQLRLSYVYDWSAPPSQCCQRREGIP
# B3: ER membrane complex subunit EMC1 (protein, UniProt Q8N766 23-993)
# chain: YEDQVGKFDWRQQYVGKVKFASLEFSPGSKKLVVATEKNVIAALNSRTGEILWRHVDKGTAEGAVDAMLLHGQDVITVSNGGRIMRSWETNIGGLNWEITLDSGSFQALGLVGLQESVRYIAVLKKTTLALHHLSSGHLKWVEHLPESDSIHYQMVYSYGSGVVWALGVVPFSHVNIVKFNVEDGEIVQQVRVSTPWLQHLSGACGVVDEAVLVCPDPSSRSLQTLALETEWELRQIPLQSLDLEFGSGFQPRVLPTQPNPVDASRAQFFLHLSPSHYALLQYHYGTLSLLKNFPQTALVSFATTGEKTVAAVMACRNEVQKSSSSEDGSMGSFSEKSSSKDSLACFNQTYTINLYLVETGRRLLDTTITFSLEQSGTRPERLYIQVFLKKDDSVGYRALVQTEDHLLLFLQQLAGKVVLWSREESLAEVVCLEMVDLPLTGAQAELEGEFGKKADGLLGMFLKRLSSQLILLQAWTSHLWKMFYDARKPRSQIKNEINIDTLARDEFNLQKMMVMVTASGKLFGIESSSGTILWKQYLPNVKPDSSFKLMVQRTTAHFPHPPQCTLLVKDKESGMSSLYVFNPIFGKWSQVAPPVLKRPILQSLLLPVMDQDYAKVLLLIDDEYKVTAFPATRNVLRQLHELAPSIFFYLVDAEQGRLCGYRLRKDLTTELSWELTIPPEVQRIVKVKGKRSSEHVHSQGRVMGDRSVLYKSLNPNLLAVVTESTDAHHERTFIGIFLIDGVTGRIIHSSVQKKAKGPVHIVHSENWVVYQYWNTKARRNEFTVLELYEGTEQYNATAFSSLDRPQLPQVLQQSYIFPSSISAMEATITERGITSRHLLIGLPSGAILSLPKALLDPRRPEIPTEQSREENLIPYSPDVQIHAERFINYNQTVSRMRGIYTAPSGLESTCLVVAYGLDIYQTRVYPSKQFDVLKDDYDYVLISSVLFGLVFATMITKRLAQVKLLNRAWR
# B4: ER lipid raft-associated protein ERLIN1 (protein, UniProt O75477 1-348)
# chain: MNMTQARVLVAAVVGLVAVLLYASIHKIEEGHLAVYYRGGALLTSPSGPGYHIMLPFITTFRSVQTTLQTDEVKNVPCGTSGGVMIYIDRIEVVNMLAPYAVFDIVRNYTADYDKTLIFNKIHHELNQFCSAHTLQEVYIELFDQIDENLKQALQKDLNLMAPGLTIQAVRVTKPKIPEAIRRNFELMEAEKTKLLIAAQKQKVVEKEAETERKKAVIEAEKIAQVAKIRFQQKVMEKETEKRISEIEDAAFLAREKAKADAEYYAAHKYATSNKHKLTPEYLELKKYQAIASNSKIYFGSNIPNMFVDSSCALKYSDIRTGRESSLPSKEALEPSGENVIQNKESTG
# B5: DnaJ heat shock protein family member C3 (protein, UniProt Q13217 32-504)
# chain: GVNADVEKHLELGKKLLAAGQLADALSQFHAAVDGDPDNYIAYYRRATVFLAMGKSKAALPDLTKVIQLKMDFTAARLQRGHLLLKQGKLDEAEDDFKKVLKSNPSENEEKEAQSQLIKSDEMQRLRSQALNAFGSGDYTAAIAFLDKILEVCVWDAELRELRAECFIKEGEPRKAISDLKAASKLKNDNTEAFYKISTLYYQLGDHELSLSEVRECLKLDQDHKRCFAHYKQVKKLNKLIESAEELIRDGRYTDATSKYESVMKTEPSIAEYTVRSKERICHCFSKDEKPVEAIRVCSEVLQMEPDNVNALKDRAEAYLIEEMYDEAIQDYETAQEHNENDQQIREGLEKAQRLLKQSQKRDYYKILGVKRNAKKQEIIKAYRKLALQWHPDNFQNEEEKKKAEKKFIDIAAAKEVLSDPEMRKKFDDGEDPLDAESQQGGGGNPFHRSWNSWQGFNPFSSGGPFRFKFHFN
# B6: protein disulfide isomerase family A member 10 (protein, UniProt Q9BS26 30-406)
# chain: EITSLDTENIDEILNNADVALVNFYADWCRFSQMLHPIFEEASDVIKEEFPNENQVVFARVDCDQHSDIAQRYRISKYPTLKLFRNGMMMKREYRGQRSVKALADYIRQQKSDPIQEIRDLAEITTLDRSKRNIIGYFEQKDSDNYRVFERVANILHDDCAFLSAFGDVSKPERYSGDNIIYKPPGHSAPDMVYLGAMTNFDVTYNWIQDKCVPLVREITFENGEELTEEGLPFLILFHMKEDTESLEIFQNEVARQLISEKGTINFLHADCDKFRHPLLHIQKTPADCPVIAIDSFRHMYVFGDFKDVLIPGKLKQFVFDLHSGKLHREFHHGPDPTDTAPGEQAQDVASSPPESSFQKLAPSEYRYTLLRDRDEL
# B7: HYOU1 (protein, UniProt Q9Y4L1 33-999)
# chain: LAVMSVDLGSESMKVAIVKPGVPMEIVLNKESRRKTPVIVTLKENERFFGDSAASMAIKNPKATLRYFQHLLGKQADNPHVALYQARFPEHELTFDPQRQTVHFQISSQLQFSPEEVLGMVLNYSRSLAEDFAEQPIKDAVITVPVFFNQAERRAVLQAARMAGLKVLQLINDNTATALSYGVFRRKDINTTAQNIMFYDMGSGSTVCTIVTYQMVKTKEAGMQPQLQIRGVGFDRTLGGLEMELRLRERLAGLFNEQRKGQRAKDVRENPRAMAKLLREANRLKTVLSANADHMAQIEGLMDDVDFKAKVTRVEFEELCADLFERVPGPVQQALQSAEMSLDEIEQVILVGGATRVPRVQEVLLKAVGKEELGKNINADEAAAMGAVYQAAALSKAFKVKPFVVRDAVVYPILVEFTREVEEEPGIHSLKHNKRVLFSRMGPYPQRKVITFNRYSHDFNFHINYGDLGFLGPEDLRVFGSQNLTTVKLKGVGDSFKKYPDYESKGIKAHFNLDESGVLSLDRVESVFETLVEDSAEEESTLTKLGNTISSLFGGGTTPDAKENGTDTVQEEEESPAEGSKDEPGEQVELKEEAEAPVEDGSQPPPPEPKGDATPEGEKATEKENGDKSEAQKPSEKAEAGPEGVAPAPEGEKKQKPARKRRMVEEIGVELVVLDLPDLPEDKLAQSVQKLQDLTLRDLEKQEREKAANSLEAFIFETQDKLYQPEYQEVSTEEQREEISGKLSAASTWLEDEGVGATTVMLKEKLAELRKLCQGLFFRVEERKKWPERLSALDNLLNHSSMFLKGARLIPEMDQIFTEVEMTTLEKVINETWAWKNATLAEQAKLPATEKPVLLSKDIEAKMMALDREVQYLLNKAKFTKPRPRPKDKNGTRAEPPLNASASDQGEKVIPPAGQTEDAEPISEPEKVETGSEPGDTEPLELGGPGAEPEQKEQSTGQKRPLKNDEL
# B8: oligosaccharyl transferase complex catalytic subunit A (protein, UniProt P46977 1-705)
# chain: MTKFGFLRLSYEKQDTLLKLLILSMAAVLSFSTRLFAVLRFESVIHEFDPYFNYRTTRFLAEEGFYKFHNWFDDRAWYPLGRIIGGTIYPGLMITSAAIYHVLHFFHITIDIRNVCVFLAPLFSSFTTIVTYHLTKELKDAGAGLLAAAMIAVVPGYISRSVAGSYDNEGIAIFCMLLTYYMWIKAVKTGSICWAAKCALAYFYMVSSWGGYVFLINLIPLHVLVLMLTGRFSHRIYVAYCTVYCLGTILSMQISFVGFQPVLSSEHMAAFGVFGLCQIHAFVDYLRSKLNPQQFEVLFRSVISLVGFVLLTVGALLMLTGKISPWTGRFYSLLDPSYAKNNIPIIASVSEHQPTTWSSYYFDLQLLVFMFPVGLYYCFSNLSDARIFIIMYGVTSMYFSAVMVRLMLVLAPVMCILSGIGVSQVLSTYMKNLDISRPDKKSKKQQDSTYPIKNEVASGMILVMAFFLITYTFHSTWVTSEAYSSPSIVLSARGGDGSRIIFDDFREAYYWLRHNTPEDAKVMSWWDYGYQITAMANRTILVDNNTWNNTHISRVGQAMASTEEKAYEIMRELDVSYVLVIFGGLTGYSSDDINKFLWMVRIGGSTDTGKHIKENDYYTPTGEFRVDREGSPVLLNCLMYKMCYYRFGQVYTEAKRPPGFDRVRNAEIGNKDFELDVLEEAYTTEHWLVRIYKVKDLDNRGLSRT
# Target: FLAG-tagged thyroglobulin C1264R (human) (UniProt P01266)
# Experiment: affinity purification with mass spectrometry; FLAG-Tg variants transiently expressed in HEK293 cells; cells cross-linked with 0.5 mM DSP, RIPA lysate, M2 anti-flag agarose or G1 Anti-DYKDDDDK resin overnight at 4 °C, four RIPA washes; TMT sixplex LC-MS/MS against mock AP (untagged Tg, EGFP or tdTomato)
row,binding,Binder
1,binds,B1
2,binds,B2
3,binds,B3
4,binds,B4

# Target: FLAG-tagged thyroglobulin, WT (human) (UniProt P01266)
# Experiment: as above
row,binding,Binder
1,binds,B5
2,binds,B6
3,binds,B7
4,binds,B8
